These results are taken from US20250025582A1, “LIGANDS AND THEIR USE” (THE UNIVERSITY OF SYDNEY, priority 2020, published 2025).

Each structure is given as a SMILES string.

Data set [1] can be described thus: Complex formation on exposure to Zr(IV), analysed by LC-MS/ESI-MS. It counts as physicochemical. Conditions: ESI-MS analysis.
A short description of data set [2]: Complex formation on exposure to Lu(III), analysed by LC-MS/ESI-MS. It counts as physicochemical. As to conditions: ESI-MS analysis.

On to `CC(=O)N(O)CCCCCNC(=O)CCC(=O)N(O)CCCCCNC(=O)CCC(=O)N(O)CCCCCNC(=O)CN1CCN(CC(=O)O)CCN(CC(=O)O)CCN(CC(=O)O)CC1` [DFOB-DOTA (2), DFOB-DOTA], for which the “number of chelating ligands of the compound forming a complex with the metal ion” value in data set [1] and in data set [2] was “only one of the two chelating ligands” in each case.
Take `CC(=O)N(O)CCCCCNC(=O)CCC(=O)N(O)CCCCCNC(=O)CCC(=O)N(O)CCCCCNC(=O)[C@@H](N)CCCCNC(=O)CN1CCN(CC(=O)O)CCN(CC(=O)O)CCN(CC(=O)O)CC1` [DFOB-L-LYS-DOTA (3), DFOB-L-LYS-DOTA]: the “number of chelating ligands of the compound forming a complex with the metal ion” value in data set [1] and in data set [2] was “only one of the two chelating ligands” throughout.
